Measurements taken from the supplement of paper PMC7666118.
The other results are listed elsewhere or left out.

Chains of the proteins cited; added tags and fusions are not shown. Lines headed by an entry give the natural chain unless they say otherwise; changes in a name come on top.
UniProt P14854, whole entry: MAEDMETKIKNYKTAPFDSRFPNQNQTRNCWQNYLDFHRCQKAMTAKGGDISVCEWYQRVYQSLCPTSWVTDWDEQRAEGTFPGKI
UniProt Q9UEE9, whole entry: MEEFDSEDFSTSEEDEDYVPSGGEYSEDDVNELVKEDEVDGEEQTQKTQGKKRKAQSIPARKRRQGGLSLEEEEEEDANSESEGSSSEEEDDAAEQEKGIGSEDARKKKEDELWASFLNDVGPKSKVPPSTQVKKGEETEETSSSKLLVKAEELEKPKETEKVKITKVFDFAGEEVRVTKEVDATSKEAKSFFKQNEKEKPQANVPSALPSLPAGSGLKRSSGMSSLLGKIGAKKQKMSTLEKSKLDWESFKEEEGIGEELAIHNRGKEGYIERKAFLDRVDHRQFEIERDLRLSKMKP
UniProt Q9BV73: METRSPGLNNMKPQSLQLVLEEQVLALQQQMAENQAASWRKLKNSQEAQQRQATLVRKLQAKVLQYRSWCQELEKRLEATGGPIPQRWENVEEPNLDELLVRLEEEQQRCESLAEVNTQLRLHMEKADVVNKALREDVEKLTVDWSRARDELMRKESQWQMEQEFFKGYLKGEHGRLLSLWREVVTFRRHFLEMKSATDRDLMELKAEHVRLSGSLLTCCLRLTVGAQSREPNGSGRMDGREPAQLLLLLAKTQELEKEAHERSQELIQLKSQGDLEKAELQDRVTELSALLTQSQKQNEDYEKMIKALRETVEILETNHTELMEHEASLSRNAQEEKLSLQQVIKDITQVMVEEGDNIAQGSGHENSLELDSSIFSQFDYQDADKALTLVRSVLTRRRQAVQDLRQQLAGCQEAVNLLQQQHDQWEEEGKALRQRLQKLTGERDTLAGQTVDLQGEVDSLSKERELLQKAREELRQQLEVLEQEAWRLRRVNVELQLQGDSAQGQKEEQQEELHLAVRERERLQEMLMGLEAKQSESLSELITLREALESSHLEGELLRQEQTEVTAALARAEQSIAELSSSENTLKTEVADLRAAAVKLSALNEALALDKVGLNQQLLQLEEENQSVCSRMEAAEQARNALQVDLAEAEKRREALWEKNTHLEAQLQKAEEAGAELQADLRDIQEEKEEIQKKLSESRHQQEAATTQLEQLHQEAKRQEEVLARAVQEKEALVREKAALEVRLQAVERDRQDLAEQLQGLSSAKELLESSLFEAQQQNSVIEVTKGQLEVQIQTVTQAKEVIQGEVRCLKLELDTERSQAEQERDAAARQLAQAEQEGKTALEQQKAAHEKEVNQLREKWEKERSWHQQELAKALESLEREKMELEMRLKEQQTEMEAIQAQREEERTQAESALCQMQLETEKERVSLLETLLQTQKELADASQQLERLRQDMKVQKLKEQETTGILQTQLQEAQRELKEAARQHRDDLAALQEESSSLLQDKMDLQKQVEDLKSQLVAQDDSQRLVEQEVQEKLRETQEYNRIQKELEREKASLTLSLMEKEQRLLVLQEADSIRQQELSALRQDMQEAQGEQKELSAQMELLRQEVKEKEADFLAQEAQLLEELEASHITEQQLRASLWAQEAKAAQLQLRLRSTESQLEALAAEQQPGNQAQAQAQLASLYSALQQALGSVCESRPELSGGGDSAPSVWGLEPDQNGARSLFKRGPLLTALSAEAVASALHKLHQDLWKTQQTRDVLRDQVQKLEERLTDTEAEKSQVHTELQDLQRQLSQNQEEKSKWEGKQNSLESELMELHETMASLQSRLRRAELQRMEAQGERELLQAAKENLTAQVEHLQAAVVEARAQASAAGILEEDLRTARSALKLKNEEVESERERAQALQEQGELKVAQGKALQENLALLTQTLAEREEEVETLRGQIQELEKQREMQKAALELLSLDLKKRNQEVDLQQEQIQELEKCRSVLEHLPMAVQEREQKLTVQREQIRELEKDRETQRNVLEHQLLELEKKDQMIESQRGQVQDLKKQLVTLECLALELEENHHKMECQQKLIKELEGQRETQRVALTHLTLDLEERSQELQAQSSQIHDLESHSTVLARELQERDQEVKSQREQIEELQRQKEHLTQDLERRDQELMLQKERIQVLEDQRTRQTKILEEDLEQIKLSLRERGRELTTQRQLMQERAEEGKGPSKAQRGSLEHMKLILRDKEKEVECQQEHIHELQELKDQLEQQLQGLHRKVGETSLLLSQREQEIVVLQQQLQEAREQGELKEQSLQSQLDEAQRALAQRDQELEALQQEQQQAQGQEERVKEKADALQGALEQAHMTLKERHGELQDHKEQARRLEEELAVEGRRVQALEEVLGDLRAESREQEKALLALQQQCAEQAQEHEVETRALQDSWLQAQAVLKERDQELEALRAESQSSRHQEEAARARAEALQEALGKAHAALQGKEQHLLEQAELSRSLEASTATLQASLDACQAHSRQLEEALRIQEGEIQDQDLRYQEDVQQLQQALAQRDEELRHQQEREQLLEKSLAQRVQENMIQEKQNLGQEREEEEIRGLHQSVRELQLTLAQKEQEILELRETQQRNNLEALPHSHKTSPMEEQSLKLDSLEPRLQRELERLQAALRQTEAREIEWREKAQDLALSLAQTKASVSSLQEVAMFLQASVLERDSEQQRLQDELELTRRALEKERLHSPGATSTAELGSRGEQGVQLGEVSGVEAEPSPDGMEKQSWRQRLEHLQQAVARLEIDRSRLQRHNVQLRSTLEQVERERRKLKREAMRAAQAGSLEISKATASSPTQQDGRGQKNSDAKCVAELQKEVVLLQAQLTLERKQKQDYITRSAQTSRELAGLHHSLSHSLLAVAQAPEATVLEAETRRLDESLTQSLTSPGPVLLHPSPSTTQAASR
UniProt Q8WYQ3: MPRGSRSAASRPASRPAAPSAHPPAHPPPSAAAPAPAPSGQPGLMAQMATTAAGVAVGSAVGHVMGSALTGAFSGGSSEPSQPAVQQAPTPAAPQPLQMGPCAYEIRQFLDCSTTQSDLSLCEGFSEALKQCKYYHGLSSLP
UniProt P09543: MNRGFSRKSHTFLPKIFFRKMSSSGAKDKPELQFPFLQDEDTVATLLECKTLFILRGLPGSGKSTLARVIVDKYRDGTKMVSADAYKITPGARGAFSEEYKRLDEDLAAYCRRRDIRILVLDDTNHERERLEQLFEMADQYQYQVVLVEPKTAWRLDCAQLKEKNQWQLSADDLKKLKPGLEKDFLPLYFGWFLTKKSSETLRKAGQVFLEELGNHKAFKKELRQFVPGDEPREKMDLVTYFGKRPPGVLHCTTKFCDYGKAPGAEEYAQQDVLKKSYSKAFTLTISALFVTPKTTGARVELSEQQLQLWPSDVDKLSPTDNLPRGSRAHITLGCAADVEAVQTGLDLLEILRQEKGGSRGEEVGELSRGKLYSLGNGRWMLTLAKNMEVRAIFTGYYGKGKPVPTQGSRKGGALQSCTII
UniProt P50613: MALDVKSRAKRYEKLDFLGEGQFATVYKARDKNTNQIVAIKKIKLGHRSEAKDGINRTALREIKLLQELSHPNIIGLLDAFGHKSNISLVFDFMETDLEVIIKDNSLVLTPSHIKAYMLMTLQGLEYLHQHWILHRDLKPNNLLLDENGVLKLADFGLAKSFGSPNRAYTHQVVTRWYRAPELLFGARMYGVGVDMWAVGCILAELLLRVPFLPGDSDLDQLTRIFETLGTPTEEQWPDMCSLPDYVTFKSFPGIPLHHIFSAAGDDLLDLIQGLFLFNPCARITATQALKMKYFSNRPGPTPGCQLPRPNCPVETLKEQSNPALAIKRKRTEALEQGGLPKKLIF
UniProt Q5SW79: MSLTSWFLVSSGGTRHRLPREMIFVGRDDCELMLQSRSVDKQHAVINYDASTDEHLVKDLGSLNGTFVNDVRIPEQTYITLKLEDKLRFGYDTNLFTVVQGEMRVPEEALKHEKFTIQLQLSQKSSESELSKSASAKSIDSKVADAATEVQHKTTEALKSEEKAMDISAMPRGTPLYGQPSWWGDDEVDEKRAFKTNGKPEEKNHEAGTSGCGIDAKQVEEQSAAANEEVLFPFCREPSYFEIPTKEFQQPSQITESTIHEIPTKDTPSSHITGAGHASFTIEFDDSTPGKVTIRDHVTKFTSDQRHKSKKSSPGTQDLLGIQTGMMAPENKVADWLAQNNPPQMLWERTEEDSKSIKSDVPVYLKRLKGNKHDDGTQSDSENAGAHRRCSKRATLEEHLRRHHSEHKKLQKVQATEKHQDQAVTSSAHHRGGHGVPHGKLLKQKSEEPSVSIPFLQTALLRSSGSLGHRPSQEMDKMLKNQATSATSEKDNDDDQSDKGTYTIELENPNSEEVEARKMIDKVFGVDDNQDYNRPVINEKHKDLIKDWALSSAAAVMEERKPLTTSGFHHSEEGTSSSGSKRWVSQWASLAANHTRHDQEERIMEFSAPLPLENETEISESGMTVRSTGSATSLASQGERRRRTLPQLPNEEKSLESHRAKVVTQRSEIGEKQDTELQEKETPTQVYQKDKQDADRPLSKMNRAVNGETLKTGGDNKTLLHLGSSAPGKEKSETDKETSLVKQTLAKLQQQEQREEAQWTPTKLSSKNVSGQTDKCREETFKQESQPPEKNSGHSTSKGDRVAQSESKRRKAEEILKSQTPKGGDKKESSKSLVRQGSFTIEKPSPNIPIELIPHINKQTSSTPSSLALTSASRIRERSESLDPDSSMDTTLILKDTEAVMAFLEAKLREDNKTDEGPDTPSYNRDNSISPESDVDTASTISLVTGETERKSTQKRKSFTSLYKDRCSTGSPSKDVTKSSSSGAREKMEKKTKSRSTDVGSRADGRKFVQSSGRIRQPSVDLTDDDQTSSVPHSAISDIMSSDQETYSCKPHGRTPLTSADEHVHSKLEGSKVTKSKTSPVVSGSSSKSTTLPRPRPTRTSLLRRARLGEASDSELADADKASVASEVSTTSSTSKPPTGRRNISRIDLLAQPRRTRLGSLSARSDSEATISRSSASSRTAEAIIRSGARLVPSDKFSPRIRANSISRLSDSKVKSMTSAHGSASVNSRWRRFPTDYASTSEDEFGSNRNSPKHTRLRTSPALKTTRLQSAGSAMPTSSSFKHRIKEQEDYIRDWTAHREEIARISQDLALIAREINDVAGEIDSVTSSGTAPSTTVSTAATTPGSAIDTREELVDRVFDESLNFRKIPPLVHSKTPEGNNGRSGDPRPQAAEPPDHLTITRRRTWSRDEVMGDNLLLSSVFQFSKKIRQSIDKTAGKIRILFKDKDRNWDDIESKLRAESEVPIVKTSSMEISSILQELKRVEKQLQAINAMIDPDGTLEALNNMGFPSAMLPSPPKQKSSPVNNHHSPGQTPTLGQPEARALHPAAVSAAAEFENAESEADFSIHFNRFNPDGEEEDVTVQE
UniProt Q96FF9: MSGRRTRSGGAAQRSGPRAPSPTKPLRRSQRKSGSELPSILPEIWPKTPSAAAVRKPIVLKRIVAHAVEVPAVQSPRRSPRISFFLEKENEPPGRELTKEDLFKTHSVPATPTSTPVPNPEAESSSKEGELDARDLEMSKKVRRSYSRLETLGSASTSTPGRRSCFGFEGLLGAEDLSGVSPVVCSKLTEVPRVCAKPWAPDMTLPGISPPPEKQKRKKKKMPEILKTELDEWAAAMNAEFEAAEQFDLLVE
UniProt P09669, whole entry: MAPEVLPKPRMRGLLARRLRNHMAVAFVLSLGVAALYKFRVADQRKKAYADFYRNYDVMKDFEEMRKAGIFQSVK
UniProt P57737: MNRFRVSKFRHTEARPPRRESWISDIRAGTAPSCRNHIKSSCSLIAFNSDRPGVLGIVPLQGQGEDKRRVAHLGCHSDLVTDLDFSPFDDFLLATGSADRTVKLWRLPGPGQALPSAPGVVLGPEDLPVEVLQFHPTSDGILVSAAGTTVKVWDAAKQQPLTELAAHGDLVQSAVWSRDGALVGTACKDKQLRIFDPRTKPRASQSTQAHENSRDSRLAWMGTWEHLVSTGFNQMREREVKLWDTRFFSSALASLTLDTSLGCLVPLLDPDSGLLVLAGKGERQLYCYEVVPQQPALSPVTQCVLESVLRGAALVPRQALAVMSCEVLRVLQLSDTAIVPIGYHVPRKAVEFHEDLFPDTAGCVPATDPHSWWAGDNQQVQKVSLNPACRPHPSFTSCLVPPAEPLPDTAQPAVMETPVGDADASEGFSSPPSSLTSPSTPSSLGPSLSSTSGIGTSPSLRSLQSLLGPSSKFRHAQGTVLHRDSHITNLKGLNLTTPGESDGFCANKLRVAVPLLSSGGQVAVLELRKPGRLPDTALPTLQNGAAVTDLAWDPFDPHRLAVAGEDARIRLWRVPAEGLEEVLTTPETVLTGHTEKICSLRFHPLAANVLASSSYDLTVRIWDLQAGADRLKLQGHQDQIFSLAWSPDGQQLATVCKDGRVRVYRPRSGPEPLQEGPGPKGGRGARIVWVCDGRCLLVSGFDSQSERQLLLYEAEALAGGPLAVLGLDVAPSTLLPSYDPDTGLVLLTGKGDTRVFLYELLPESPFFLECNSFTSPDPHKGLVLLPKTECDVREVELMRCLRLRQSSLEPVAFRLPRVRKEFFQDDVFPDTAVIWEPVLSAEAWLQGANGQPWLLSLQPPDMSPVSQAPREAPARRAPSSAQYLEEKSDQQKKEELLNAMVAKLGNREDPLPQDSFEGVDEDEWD

What follows are targets tested with COc1ccc(Cn2ccc3cc(C)c(C(=O)NO)cc32)cc1 (assay: dose-dependent thermal stabilisation call (2D-TPP, DLPTP, 10% FDR) (binary (1 = stabilised)); higher = stabilised by the compound). Conditions: system: HL-60 intact cells; concentration range 0.04-10 µM.
Method: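 2D thermal proteome profiling in intact HL-60 cells treated with BRD-3811 (0, 0.04, 0.29, 2, 10 uM) for 90 min at 37 C, then heated 3 min at one of 12 temperatures (42-63.9 C). Soluble protein was quantified by TMT10 MS. The value is the DLPTP call of the paper: dose-dependent thermal stabilisation over all temperatures at 10% FDR (F-test of a dose-response against a flat model); one experiment, one call per tested protein.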
For COX5A (UniProt P20674), the “dose-dependent thermal stabilisation call” value was inactive: 0. With CNPY2 (UniProt Q9Y2B0) the “dose-dependent thermal stabilisation call” value was inactive: 0. In the case of CDC5L (UniProt Q99459), the “dose-dependent thermal stabilisation call” value was inactive: 0. For CLCC1 (UniProt Q96S66), the “dose-dependent thermal stabilisation call” value was inactive: 0. COX6B1 (UniProt P14854) was tested, and the “dose-dependent thermal stabilisation call” value was inactive: 0. With CRKL (UniProt P46109) the “dose-dependent thermal stabilisation call” value was inactive: 0. With CRYL1 (UniProt Q9Y2S2) the “dose-dependent thermal stabilisation call” value was inactive: 0. CFDP1 (UniProt Q9UEE9) was tested, and the “dose-dependent thermal stabilisation call” value was inactive: 0. CEP250 (UniProt Q9BV73) was tested, and the “dose-dependent thermal stabilisation call” value was inactive: 0. CENPQ (UniProt Q7L2Z9) was tested, and the “dose-dependent thermal stabilisation call” value was inactive: 0. COQ3 (UniProt Q9NZJ6) was tested, and the “dose-dependent thermal stabilisation call” value was inactive: 0. With COPG (UniProt Q9Y678) the “dose-dependent thermal stabilisation call” value was inactive: 0. For CEP350 (UniProt Q5VT06), the “dose-dependent thermal stabilisation call” value was inactive: 0. With CES2 (UniProt O00748) the “dose-dependent thermal stabilisation call” value was inactive: 0. In the case of CHCHD10 (UniProt Q8WYQ3), the “dose-dependent thermal stabilisation call” value was inactive: 0. CISD2 (UniProt Q8N5K1) was tested, and the “dose-dependent thermal stabilisation call” value was inactive: 0. For CRYZL1 (UniProt O95825), the “dose-dependent thermal stabilisation call” value was inactive: 0. With CHUK (UniProt O15111) the “dose-dependent thermal stabilisation call” value was inactive: 0. In the case of CENPE (UniProt Q02224), the “dose-dependent thermal stabilisation call” value was inactive: 0. For CNP (UniProt P09543), the “dose-dependent thermal stabilisation call” value was inactive: 0. With CDK7 (UniProt P50613) the “dose-dependent thermal stabilisation call” value was inactive: 0. CEP170 (UniProt Q5SW79) was tested, and the “dose-dependent thermal stabilisation call” value was inactive: 0. With CHCHD8 (UniProt Q9NYJ1) the “dose-dependent thermal stabilisation call” value was inactive: 0. CDCA5 (UniProt Q96FF9) was tested, and the “dose-dependent thermal stabilisation call” value was inactive: 0. In the case of COX6C (UniProt P09669), the “dose-dependent thermal stabilisation call” value was inactive: 0. In the case of CPSF3 (UniProt Q9UKF6), the “dose-dependent thermal stabilisation call” value was inactive: 0. In the case of CORO7 (UniProt P57737), the “dose-dependent thermal stabilisation call” value was inactive: 0.
